These results are taken from paper PMC8860586.

By UniProt entry, the sequences of proteins in these tests, tags left out. Residues count along the entry.
UniProt P08670, 2-466: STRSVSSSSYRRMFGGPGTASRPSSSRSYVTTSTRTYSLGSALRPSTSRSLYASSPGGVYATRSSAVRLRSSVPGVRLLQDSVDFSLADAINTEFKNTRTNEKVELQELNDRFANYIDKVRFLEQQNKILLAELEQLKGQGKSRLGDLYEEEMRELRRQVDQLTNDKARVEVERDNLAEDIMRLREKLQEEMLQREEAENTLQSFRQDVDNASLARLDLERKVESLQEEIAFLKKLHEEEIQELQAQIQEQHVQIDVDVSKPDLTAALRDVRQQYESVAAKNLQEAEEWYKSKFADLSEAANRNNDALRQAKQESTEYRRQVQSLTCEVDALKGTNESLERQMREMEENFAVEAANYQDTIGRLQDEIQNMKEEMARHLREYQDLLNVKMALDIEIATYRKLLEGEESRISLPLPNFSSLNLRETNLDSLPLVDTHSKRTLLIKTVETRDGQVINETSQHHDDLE

For part of these data: No signal at the amounts used counts as a negative. For part of these data: The comparison behind a weaker result is the experiment's own reference, which may not be listed here. For part of these data: Results from cells or extracts need not show a direct contact. For part of these data: Construct, isoform or probe ends are uncertain for at least one entry.

For data set [1], the target named is Vimentin (HGC-27 nuclear extract) (Homo sapiens) (UniProt P08670). Nature of the data set: pull-down. To be noted: 100 mM KCl, poly[dA-dT], no vimentin enrichment in last fraction, protein in an extract, label: 5'-biotin (KIT2KIT* strand).
The next data set has as its target Vimentin (Homo sapiens) (UniProt P08670). The data set is described as follows: EMSA. To be noted: commercial protein.
The target of data set [2] is Vimentin (HGC-27 nuclear extract) (Homo sapiens) (UniProt P08670). Nature of the data set: pull-down, LC-MSE. The note with it: 100 mM KCl, poly[dA-dT], eluted only by boiling in Laemmli buffer, protein in an extract, label: 5'-biotin, folded or branched DNA.
The mark [3] stands for this setting: 150 mM KCl, pH 8.4, poorly defined complex.

“CGGGCGGGCGCGAGGGAGGGGAGGCGAGGAGGGGCGTGGCCGGC (double strand) [biotin-ds KIT2KIT*]”: in data set [1], the binding result is listed as “no binding”.

For the sequence “CGGGCGGGCGCGAGGGAGGGGAGGCGAGGAGGGGCGTGGCCGGC (double strand) [ds KIT2KIT*]”, the binding result with Vimentin (Homo sapiens) (setting [3]) was “binds more weakly”; with Vimentin (Homo sapiens) (no KCl, pH 8.4), “binds”.

For “TGGCCCTGGTGGGCGGAGGCAAAGGGGGAGCCAGGGGCGGAGAAAGGGT [G-rich noG4]”, the binding result in the data set with Vimentin (Homo sapiens) (150 mM KCl, pH 8.4, single-stranded DNA) was “no binding”.

As to “CGGGCGGGCGCGAGGGAGGGGAGGCGAGGAGGGGCGTGGCCGGC [biotin-KIT2KIT*]”, the binding result in data set [2] is listed as “binds”.

On to “TTAGGGTTAGGGTTAGGGTTAGGGTTAGGGTTAGGGTTAGGGTTAGGG (double strand) [ds 2TEL]”, for which the binding result with Vimentin (Homo sapiens) (setting [3]) is on record as “binds more weakly”.
